Data from paper PMC8595650, “Structure of the bacterial flagellar hook cap provides insights into a hook assembly mechanism” (Communications Biology, 2021).
These are yes or no findings as the source states them, for the method shown. Some results given as binding are weak or reduced against the parent protein; the word gives no strength.

The chains behind the UniProt entries cited, without tags or fusion partners.
UniProt P0A1I9: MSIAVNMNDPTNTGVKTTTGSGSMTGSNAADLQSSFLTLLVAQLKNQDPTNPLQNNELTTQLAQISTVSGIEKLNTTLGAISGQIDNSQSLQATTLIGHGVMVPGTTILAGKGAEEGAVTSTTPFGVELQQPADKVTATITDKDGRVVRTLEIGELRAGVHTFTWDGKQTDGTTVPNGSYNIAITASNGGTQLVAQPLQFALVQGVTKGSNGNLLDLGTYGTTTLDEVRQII

Target: Wild-type FlgD expressed in E. coli BL21(DE3), whole-cell fraction (Salmonella enterica serovar Typhimurium) (UniProt P0A1I9)
Experiment: native gel or EMSA; native PAGE under a non-denatured condition of whole-cell fractions of E. coli BL21(DE3) expressing FlgD or deletion variants, immunoblot with anti-FlgD antibody

Substance: Wild-type FlgD expressed in E. coli BL21(DE3), whole-cell fraction (from UniProt P0A1I9 1-232)
- binding: binds
